Test results taken from the supplement of paper PMC10849652.
Some of the results follow.

Chains of the proteins cited; added tags and fusions are not shown. Lines headed by an entry give the natural chain unless they say otherwise; changes in a name come on top.
UniProt P20936: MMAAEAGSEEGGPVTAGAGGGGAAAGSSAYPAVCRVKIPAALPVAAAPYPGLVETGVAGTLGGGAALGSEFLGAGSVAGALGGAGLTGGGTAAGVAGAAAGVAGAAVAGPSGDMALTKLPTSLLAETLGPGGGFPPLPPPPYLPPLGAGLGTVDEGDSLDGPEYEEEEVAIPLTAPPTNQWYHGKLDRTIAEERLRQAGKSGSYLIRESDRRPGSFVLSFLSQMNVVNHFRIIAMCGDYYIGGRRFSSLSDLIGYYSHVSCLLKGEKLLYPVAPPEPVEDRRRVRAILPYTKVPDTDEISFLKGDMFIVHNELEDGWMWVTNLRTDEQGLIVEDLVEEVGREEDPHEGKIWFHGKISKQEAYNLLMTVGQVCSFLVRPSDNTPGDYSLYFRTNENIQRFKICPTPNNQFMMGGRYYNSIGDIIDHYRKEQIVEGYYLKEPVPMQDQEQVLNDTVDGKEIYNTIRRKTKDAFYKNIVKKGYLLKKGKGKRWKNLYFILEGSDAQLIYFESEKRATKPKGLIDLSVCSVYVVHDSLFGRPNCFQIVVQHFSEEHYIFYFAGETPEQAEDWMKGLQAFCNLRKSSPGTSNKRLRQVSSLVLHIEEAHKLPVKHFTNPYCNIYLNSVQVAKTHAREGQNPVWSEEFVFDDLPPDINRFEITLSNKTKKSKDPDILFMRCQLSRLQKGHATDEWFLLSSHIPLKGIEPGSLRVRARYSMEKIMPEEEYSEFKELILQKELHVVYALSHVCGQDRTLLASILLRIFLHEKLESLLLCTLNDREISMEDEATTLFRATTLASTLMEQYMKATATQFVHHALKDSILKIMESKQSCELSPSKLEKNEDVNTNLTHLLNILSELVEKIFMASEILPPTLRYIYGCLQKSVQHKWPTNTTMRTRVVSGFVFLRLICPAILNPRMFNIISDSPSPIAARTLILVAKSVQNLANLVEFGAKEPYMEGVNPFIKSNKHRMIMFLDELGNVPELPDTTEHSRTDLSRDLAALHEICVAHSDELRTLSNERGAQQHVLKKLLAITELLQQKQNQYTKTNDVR
UniProt Q13905: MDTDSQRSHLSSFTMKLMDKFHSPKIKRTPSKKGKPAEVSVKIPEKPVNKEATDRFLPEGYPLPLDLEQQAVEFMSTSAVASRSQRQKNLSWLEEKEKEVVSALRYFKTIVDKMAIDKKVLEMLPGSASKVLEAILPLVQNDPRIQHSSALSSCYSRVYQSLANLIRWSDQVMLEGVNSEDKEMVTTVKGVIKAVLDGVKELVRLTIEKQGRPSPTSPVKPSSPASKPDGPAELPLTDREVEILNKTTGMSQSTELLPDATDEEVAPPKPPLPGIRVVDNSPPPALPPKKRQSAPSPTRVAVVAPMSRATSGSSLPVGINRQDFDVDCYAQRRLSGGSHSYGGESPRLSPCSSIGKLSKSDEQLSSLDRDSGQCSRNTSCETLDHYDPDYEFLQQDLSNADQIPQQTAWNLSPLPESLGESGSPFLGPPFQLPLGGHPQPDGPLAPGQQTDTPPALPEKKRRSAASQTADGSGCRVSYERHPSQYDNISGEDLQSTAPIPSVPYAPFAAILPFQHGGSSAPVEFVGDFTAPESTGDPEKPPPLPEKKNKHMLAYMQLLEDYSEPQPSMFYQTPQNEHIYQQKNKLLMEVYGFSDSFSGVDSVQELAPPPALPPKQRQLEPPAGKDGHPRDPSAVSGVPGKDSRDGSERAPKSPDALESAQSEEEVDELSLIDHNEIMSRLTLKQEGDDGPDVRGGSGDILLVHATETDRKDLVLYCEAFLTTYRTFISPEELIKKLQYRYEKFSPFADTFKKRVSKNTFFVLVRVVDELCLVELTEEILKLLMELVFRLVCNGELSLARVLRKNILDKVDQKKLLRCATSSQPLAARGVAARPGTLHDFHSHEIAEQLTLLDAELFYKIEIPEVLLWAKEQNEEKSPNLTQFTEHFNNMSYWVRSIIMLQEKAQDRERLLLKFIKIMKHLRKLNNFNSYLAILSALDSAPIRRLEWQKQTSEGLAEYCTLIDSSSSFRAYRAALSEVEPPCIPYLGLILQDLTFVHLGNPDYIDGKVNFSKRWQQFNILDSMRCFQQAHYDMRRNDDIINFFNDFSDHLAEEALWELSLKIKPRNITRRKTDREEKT
UniProt O75943: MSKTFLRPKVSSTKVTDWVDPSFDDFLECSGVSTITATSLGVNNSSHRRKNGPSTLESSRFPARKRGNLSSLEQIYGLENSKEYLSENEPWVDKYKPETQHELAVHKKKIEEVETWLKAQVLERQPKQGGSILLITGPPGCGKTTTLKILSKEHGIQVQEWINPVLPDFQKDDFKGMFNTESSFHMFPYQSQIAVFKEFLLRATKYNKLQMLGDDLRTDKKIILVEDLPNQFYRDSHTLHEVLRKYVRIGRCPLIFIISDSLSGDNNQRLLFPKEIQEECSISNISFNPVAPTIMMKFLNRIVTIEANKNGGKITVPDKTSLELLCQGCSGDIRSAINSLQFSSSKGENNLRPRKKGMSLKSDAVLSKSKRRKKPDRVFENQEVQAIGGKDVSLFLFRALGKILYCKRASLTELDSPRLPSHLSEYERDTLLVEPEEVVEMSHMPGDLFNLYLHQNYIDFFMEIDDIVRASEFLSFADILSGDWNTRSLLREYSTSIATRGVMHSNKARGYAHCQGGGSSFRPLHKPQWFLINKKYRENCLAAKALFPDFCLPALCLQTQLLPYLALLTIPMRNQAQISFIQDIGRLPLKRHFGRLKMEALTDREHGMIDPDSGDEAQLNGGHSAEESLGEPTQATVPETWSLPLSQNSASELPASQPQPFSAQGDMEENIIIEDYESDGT
UniProt Q7Z5J4: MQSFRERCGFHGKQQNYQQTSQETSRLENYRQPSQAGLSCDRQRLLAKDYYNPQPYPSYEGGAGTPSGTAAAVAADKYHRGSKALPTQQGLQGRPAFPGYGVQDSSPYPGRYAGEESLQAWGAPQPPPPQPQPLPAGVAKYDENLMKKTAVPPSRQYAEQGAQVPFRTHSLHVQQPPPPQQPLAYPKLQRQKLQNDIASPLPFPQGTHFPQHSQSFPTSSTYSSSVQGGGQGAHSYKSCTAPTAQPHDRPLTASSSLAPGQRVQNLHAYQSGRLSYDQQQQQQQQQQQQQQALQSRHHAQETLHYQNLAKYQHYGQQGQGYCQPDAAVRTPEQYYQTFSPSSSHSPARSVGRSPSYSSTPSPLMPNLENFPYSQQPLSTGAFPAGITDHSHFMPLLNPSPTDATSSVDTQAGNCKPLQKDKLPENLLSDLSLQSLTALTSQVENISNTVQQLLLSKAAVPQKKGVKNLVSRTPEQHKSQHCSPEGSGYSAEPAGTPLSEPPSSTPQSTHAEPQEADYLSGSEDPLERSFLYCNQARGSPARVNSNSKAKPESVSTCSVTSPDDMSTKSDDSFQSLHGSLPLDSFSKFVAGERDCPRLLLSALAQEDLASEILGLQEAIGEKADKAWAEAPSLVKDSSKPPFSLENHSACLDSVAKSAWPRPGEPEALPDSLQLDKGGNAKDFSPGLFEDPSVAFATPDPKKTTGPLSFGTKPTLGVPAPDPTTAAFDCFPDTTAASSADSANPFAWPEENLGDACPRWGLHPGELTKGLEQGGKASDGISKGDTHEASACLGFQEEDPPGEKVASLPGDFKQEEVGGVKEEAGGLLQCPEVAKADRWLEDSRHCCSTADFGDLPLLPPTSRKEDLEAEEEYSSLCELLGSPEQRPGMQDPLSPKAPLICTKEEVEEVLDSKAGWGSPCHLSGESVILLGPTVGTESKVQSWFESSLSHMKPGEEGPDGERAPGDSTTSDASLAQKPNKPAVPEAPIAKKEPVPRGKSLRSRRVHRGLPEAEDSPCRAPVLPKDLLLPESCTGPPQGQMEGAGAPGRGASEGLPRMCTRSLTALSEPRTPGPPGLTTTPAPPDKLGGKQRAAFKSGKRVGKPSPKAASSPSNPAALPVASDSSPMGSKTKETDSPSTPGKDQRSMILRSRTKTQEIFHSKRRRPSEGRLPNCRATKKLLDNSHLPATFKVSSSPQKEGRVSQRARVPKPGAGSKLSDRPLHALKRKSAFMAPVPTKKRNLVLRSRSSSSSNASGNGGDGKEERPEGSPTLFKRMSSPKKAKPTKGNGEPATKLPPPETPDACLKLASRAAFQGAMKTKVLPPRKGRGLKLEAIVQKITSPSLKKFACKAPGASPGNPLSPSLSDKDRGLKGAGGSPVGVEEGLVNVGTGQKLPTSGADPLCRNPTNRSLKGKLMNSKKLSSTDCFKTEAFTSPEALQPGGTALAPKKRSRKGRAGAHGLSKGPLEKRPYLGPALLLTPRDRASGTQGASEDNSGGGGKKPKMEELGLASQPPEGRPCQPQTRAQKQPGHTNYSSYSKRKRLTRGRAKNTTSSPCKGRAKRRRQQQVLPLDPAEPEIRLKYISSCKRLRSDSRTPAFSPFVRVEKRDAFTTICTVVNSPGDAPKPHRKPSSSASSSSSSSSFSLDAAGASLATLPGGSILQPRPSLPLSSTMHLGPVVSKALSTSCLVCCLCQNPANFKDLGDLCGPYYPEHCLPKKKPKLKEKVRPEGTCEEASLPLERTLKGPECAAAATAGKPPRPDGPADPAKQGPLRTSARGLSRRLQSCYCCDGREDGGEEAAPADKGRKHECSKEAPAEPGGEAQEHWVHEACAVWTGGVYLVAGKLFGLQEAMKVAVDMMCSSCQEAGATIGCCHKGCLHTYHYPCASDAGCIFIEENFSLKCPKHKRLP
UniProt O60518: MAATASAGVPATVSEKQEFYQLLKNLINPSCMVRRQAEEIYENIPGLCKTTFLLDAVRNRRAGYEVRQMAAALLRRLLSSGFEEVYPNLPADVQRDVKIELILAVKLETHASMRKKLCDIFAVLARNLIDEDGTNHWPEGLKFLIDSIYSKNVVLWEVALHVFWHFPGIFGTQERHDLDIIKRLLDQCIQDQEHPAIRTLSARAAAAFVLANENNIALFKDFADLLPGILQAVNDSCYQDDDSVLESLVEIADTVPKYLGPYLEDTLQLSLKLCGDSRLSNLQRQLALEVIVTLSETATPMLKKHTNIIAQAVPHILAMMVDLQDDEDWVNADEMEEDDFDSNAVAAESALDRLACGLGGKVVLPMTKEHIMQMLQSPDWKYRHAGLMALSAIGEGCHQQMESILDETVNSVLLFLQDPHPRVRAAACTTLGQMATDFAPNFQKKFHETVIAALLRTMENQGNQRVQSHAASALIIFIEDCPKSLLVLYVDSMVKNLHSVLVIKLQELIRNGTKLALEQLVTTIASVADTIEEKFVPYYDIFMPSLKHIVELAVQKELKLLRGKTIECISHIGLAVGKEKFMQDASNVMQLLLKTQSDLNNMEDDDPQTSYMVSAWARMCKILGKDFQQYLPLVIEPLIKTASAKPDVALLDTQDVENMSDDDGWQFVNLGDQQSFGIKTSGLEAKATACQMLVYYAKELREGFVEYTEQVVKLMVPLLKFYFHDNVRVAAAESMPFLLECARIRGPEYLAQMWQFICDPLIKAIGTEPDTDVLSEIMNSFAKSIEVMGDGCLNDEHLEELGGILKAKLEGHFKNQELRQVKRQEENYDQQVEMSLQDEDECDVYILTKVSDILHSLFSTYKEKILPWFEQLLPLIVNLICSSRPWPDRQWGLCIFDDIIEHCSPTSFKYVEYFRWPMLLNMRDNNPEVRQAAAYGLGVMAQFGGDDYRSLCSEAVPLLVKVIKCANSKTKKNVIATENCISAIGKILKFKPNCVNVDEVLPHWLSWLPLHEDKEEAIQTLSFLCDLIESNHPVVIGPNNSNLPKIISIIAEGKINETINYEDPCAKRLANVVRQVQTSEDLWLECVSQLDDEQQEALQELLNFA
UniProt Q9NS23: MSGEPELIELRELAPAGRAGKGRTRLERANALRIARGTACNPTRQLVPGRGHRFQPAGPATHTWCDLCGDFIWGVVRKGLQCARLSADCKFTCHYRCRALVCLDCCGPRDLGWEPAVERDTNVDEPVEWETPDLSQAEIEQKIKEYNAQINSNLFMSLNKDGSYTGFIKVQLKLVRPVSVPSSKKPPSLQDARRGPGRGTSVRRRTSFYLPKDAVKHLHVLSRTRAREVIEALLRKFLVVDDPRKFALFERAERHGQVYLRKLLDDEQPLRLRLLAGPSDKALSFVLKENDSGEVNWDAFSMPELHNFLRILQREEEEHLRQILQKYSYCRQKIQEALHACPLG
UniProt O75884: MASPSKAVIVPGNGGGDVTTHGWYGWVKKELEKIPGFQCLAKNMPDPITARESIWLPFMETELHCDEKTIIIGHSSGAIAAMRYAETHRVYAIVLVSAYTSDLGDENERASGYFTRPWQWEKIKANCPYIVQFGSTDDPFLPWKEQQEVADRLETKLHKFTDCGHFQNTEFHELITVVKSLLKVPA

Assays:
Test in all cases: log2 fold change, soluble protein after heating vs DMSO (PISA); higher = thermal stabilisation; K562 cells, 10 uM, 30 min; active = over 0.2 and 3.5 SD of the protein, either way, in both replicates (recomputed)
[1] = compound: C#Cc1cccc(Nc2ncnc3cc(OCCOC)c(OCCOC)cc23)c1 [erlotinib]
Method in brief: (§1)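 Values are thermal stability changes relative to control samples and are taken from duplicates. They are stated as log2 fold changes. Before quantification by TMTpro 16plex LC-MS/MS with equalised channel sums, K562 cells at 2×10^6 cells/mL were treated with 10 μM compound for 30 min, heated in aliquots for 3 min across 48°C-58°C, pooled, extracted in PBS with 0.5% NP-40 at 4°C, and centrifuged at 21,000xg for 90 min to give the soluble supernatant.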

[2] = compound: C/C(=N\NC(=O)C1=CC(=CC=C1)S(=O)(=O)N2CCOCC2)/C3=C(C=CC(=C3)Cl)O
Method in brief: as §1

[3] = compound: C1=CC(=C(C=C1Cl)C2=NC3=NC=CN=C3C(=N2)NC4=CC=NC=C4)F
Method in brief: as §1

[4] = compound: C1=CC(=CC=C1C2=NC3=C(N2)C=C(C=C3)C(=O)N)OC4=CC=C(C=C4)Cl
Method in brief: as §1

[5] = compound: C1=CC2=C(C=CC(=C2)/C=C\3/C(=O)NC(=NCC4=CC=CS4)S3)N=C1
Method in brief: as §1

[6] = compound: C1=CC=C(C=C1)C2=NC(=C(N2)C3=CC=NC=C3)C4=CC(=C(C=C4)Cl)O
Method in brief: as §1

[7] = compound: C1=CC=C2C(=C1)C3=NNC4=CC=CC(=C43)C2=O
Method in brief: as §1

[8] = compound: C1CCN(C1)C(=O)NC2=CC=CC(=C2)NC3=NC=C(C(=N3)NCCC4=CN=CN4)Br
Method in brief: as §1

[9] = compound: C1CN(CCC1(CC2=CC=C(C=C2)Cl)N)C3=NC=NC4=C3C=CN4
Method in brief: as §1

[10] = compound: C1=CC2=NC=CN=C2C=C1/C=C/3\C(=O)NC(=O)S3
Method in brief: as §1

Measured: log2 fold change

RASA1 (UniProt P20936)
inactive: [1] 0.116 | [2] 0.305 | [3] -0.056 | [4] -0.094 | [5] -0.659 | [6] 0.05 | [7] 0.201 | [8] 0.082 | [9] -0.074

RAB28 (UniProt P51157)
inactive: [1] 0.197 | [2] -0.167 | [4] 0.02 | [5] 0.118 | [6] 0 | [7] 0.043

RAPGEF1 isoform 3 (UniProt Q13905)
inactive: [10] 0.024

RAD17 (UniProt O75943)
inactive: [8] 0.035 | [9] -0.086

RAI1 (UniProt Q7Z5J4)
inactive: [1] 0.139 | [3] -0.672 | [4] -0.156 | [10] -0.065 | [6] -0.773

RANBP6 (UniProt O60518)
inactive: [6] -0.073

RAD50, A0A494C0Y7
inactive: [2] -0.029 | [5] 0.049 | [10] -0.077 | [6] -0.111 | [7] 0.048 | [8] -0.033 | [9] 0.143

RASSF1 (UniProt Q9NS23)
inactive: [6] -0.024

RBBP4 isoform 2 (UniProt Q09028)
inactive: [1] 0.003 | [2] -0.111 | [4] 0.031 | [5] 0.013 | [10] 0.007 | [7] 0.068

RBBP9 (UniProt O75884)
inactive: [3] -0.037
